PubChem BioAssay AID1224828, NIAID, 2016
Screen: 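Regulators linking TLR4 signalling to p65 nuclear translocation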 (primary screen). System: mouse RAW264.7 G9 macrophage reporter cells (GFP-p65, Tnf promoter-mCherry). Reagents: siRNA pool against mouse genes, 100 nM. Timing: 2 days siRNA transfection, then 40 min LPS before fixation. Challenge: LPS (Salmonella minnesota R595) at 10 ng/ml. Detection: 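Microscopy ratio of nuclear to perinuclear-ring GFP-p65 signal, scaled to the plate median; gene score is the average of two replicate robust z-scores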. Direction: p65 translocation robust z-score: higher = more nuclear NF-kappaB p65 after LPS than the plate median; nuclear/cytoplasmic p65 ratio: higher = more nuclear NF-kappaB p65. Rule for the call: 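Called active when z exceeds 3.3 or falls under -1.56 (median of Tlr4 controls), giving activity score of at least 50; no calls for control wells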. Calls: active = hit (p65 shift raised or lowered); inactive = no clear change.
The deposit covers about 17,000 reagents; below is an unselected part. Of all reagents, 762 (4.5%) got an active call. 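Active calls include both raised and lowered p65 entry, mostly lowered; wells with fewer than 50 cells lack a z-score.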 Raw values are not corrected between plates. Unmarked entries are inactive. Reagent sequences are not shown.

no.	gene knocked down	p65 translocation robust z-score	nuclear/cytoplasmic p65 ratio, rep 1	nuclear/cytoplasmic p65 ratio, rep 2	low cell count flag
1	Cggbp1	1.27	1.58	1.59	enough cells to score
2	Qsox1	0.25	1.53	1.57	enough cells to score
3	Inka2	1.35	1.59	1.75	enough cells to score
4	Mrpl39	1.77	2.2	1.74	enough cells to score
5	Rbm45	-0.05	1.42	1.42	enough cells to score
6	Txndc11		1.23	1.21	fewer than 50 cells per well; well left out of scoring
7	Vegfb	-0.35	1.45	1.46	enough cells to score
8	Krtap5-1	-0.28	1.41	1.48	enough cells to score
9	Sh3bgrl2	-0.09	1.35	1.52	enough cells to score
10	Fabp1	1.37	1.59	1.6	enough cells to score
11	Rnf144b	1.96	1.82	1.71	enough cells to score
12	Gpm6b	1.56	1.8	1.84	enough cells to score
13	Lhx4	2.25	2.02	1.92	enough cells to score
14	Smarcad1	-0.19	1.55	1.51	enough cells to score
15	Epgn	0.2	1.64	1.47	enough cells to score
16	Cyp2j5	0.31	1.62	1.84	enough cells to score
17	Lgr4	-0.37	1.43	1.56	enough cells to score
18	Pimreg	-0.2	1.58	1.59	enough cells to score
19	Pdcd5	0.46	1.54	1.44	enough cells to score
20	Tango6	0.24	1.54	1.64	enough cells to score
21	Kptn	0.9	1.61	1.49	enough cells to score
22	Pax2	-0.23	1.4	1.4	enough cells to score
23	Casc3	-0.69	1.42	1.75	enough cells to score
24	Speer4d	-0.57	1.34	1.34	enough cells to score
25	Nsa2		1.33	1.5	fewer than 50 cells per well; well left out of scoring
26	Bpifc	0.41	1.42	1.65	enough cells to score

3 entries already listed, ordered by “nuclear/cytoplasmic p65 ratio, rep 2”, high to low:
gene knocked down	p65 translocation robust z-score	nuclear/cytoplasmic p65 ratio, rep 1	nuclear/cytoplasmic p65 ratio, rep 2	low cell count flag
Tango6	0.24	1.54	1.64	enough cells to score
Kptn	0.9	1.61	1.49	enough cells to score
Pdcd5	0.46	1.54	1.44	enough cells to score

The results go on:
no.	gene knocked down	p65 translocation robust z-score	nuclear/cytoplasmic p65 ratio, rep 1	nuclear/cytoplasmic p65 ratio, rep 2	low cell count flag
27	Nfkbie	1.07	1.59	1.55	enough cells to score
28	B3galnt2	0.88	1.59	1.47	enough cells to score
29	Anks1b		1.35	1.37	fewer than 50 cells per well; well left out of scoring
30	Adap1	0.27	1.62	1.85	enough cells to score
31	Thbs4	-0.34	1.46	1.48	enough cells to score
32	Taok1		1.18	1.14	fewer than 50 cells per well; well left out of scoring
33	Wdr37		1.17	1.05	fewer than 50 cells per well; well left out of scoring
34	Pdpn	-1.17	1.45	1.23	enough cells to score
35	Mrpl35	1.19	2.01	1.74	enough cells to score
36	Fam76a	-2.13 (active)	1.18	1.58	enough cells to score
37	Rapgef3	0.87	1.87	1.45	enough cells to score
38	Zmynd8	0.48	1.82	1.56	enough cells to score
39	Or1j17	-1.41	1.4	1.24	enough cells to score
40	Pced1a	-0.03	1.36	1.54	enough cells to score
